In PubChem BioAssay AID2551 (National Center for Advancing Translational Sciences (NCATS), 2010):
The whole screen tested about 310,000 compounds, of which about 17,000 (5.5%) were called active. Inconclusive means that the source gave no clear call. Such entries were picked first, then a sample of the others. Calls come from the whole dose curve; as a rule, active = well fitted inhibition curve with a large enough effect; inconclusive = small, poorly fitted or top-dose-only effect, or effect the other way; inactive = no such curve, though single readings can be large or run the other way. Potencies of inconclusive entries are doubtful fits and often do not repeat.

Sequences of proteins named here, by UniProt entry; tags and fusion partners are left off. A change or cut given only in a name is not applied to a line headed by its entry.
UniProt P51450: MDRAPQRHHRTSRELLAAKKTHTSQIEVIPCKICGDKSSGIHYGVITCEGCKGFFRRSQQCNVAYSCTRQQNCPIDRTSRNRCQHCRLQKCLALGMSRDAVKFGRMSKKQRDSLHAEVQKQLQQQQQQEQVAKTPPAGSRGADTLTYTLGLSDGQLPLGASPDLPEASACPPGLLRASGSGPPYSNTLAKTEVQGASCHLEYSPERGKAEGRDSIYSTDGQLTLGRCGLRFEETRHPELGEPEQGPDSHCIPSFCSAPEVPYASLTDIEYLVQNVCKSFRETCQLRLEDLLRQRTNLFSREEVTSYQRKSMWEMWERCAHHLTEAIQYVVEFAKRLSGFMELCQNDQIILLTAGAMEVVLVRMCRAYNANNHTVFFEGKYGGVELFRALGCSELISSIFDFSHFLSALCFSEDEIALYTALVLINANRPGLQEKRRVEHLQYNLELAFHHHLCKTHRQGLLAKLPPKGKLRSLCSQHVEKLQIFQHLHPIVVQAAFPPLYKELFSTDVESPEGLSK

molecular target: Nuclear receptor ROR-gamma (Mus musculus) (UniProt P51450); experiment: qHTS for inhibitors of ROR gamma transcriptional activity; details: Drosophila S2 Gal4-RORgamma UAS-luciferase reporter, 20 h; activity change, negative = inhibition: at 53.6 µM (top of the series); note: nearly all actives have a fitted effect of over 60% in size
Procedure, shortened: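 Using a luciferase readout, inhibitors were identified by reduced reporter activity in Drosophila cells coexpressing a copper-inducible Gal4–ROR gamma fusion and UAS-driven Photinus luciferase, incubated 20 hr after 700 uM copper sulfate.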
% is set by controls: 0 for no effect and ±100 for the full control effect; potency is the fitted concentration of half-maximal effect.

Potency, inconclusive:
O=C1NC(=Nc2ccc(F)cc2)CS1 35.5 µM [inhibitor, single point], COc1ccc(OCc2cc(C(=O)N(C)Cc3cc(C4CC4)n[nH]3)no2)c(Cl)c1 0.794 µM [activator, full curve], COc1ccc(C)cc1Nc1n[n+](-c2ccccc2)c(-c2ccc(OC)c(OC)c2OC)s1 11.2 µM [activator, partial curve, poor fit], N#Cc1c(Nc2ccccc2)s[nH]c1=O 35.5 µM [inhibitor, single point], COc1ccc(Cl)cc1NC(=O)c1ccc2c(SCC(=O)O)c3c(nc2c1)CCCC3 14.1 µM [inhibitor, single point], CCOC(=O)c1sc(N/N=C/c2cc(Br)c(O)c(OC)c2)nc1C 1.78 µM [activator, full curve], COc1ccc(N/C=C(\C#N)c2nc3ccccc3n2C)c(OC)c1 3.16 µM [inhibitor, partial curve, poor fit], O=C(N/N=C\C=C\c1ccco1)C1COc2ccccc2O1 (stereo not drawn) 35.5 µM [inhibitor, single point], O=C(/C=C/c1ccc(O)cc1)c1ccccc1 17.8 µM [inhibitor, single point], COc1ccccc1CNC(=O)C1CCCN1S(=O)(=O)c1cccc2cccnc12 (stereo not drawn) 35.5 µM [inhibitor, single point], CC1(C)NC(=O)N(CCCOc2ccccc2Br)C1=O 3.16 µM [activator, full curve], Cc1ccc(CC(=O)Nc2nccs2)cc1C 25.1 µM [inhibitor, single point], CN(C)S(=O)(=O)c1ccc2oc(SCC(=O)Nc3ccccc3F)nc2c1 12.6 µM [activator, partial curve], COc1ccc(/C=C2/SC(=O)N(CCCCCC(=O)Nc3ccccc3C(=O)O)C2=S)cc1 7.08 µM [inhibitor, partial curve], CCC1Oc2ccc(C)cc2N(CC(=O)N(Cc2ccc(C)o2)C2CCCC2)C1=O (stereo not drawn) 35.5 µM [inhibitor, single point], Cc1oc2ccc(O)cc2c1C(=O)c1ccc([N+](=O)[O-])cc1 6.31 µM [activator, single point], CS(=O)(=O)c1ccc(Cl)c(NC(=O)COC(=O)c2cccc(C#N)c2)c1 17.8 µM [inhibitor, single point], CCOC(=O)c1cc2cc(-c3c(C(=O)OCC)oc4cc(O)cc(O)c4c3=O)ccc2o1 35.5 µM [inhibitor, single point], Cc1ccccc1N(Cc1cc(=O)[nH]c2ccccc12)C(=O)CCl 12.6 µM [inhibitor, partial curve], NSc1nc(N)c2nc(-c3ccccc3)c(-c3ccccc3)nc2n1 3.98 µM [inhibitor, full curve, poor fit], COC(=O)c1sc(NC(=S)NC(=O)c2ccc(C)cc2)nc1C 6.31 µM [inhibitor, single point], Cc1ccc(Nc2nc(N)nc(CSc3nccn3C)n2)cc1 15.8 µM [inhibitor, single point], CCCCc1ccc(NC(=S)NCCc2ccc(S(N)(=O)=O)cc2)cc1 17.8 µM [inhibitor, single point], COc1ccc(C(=O)Nc2cc(OC)nc(OC)n2)cc1 0.447 µM [activator, full curve, poor fit], O=C(N/N=C/c1cn(-c2ccccc2)nc1-c1cc2ccccc2o1)c1c[nH]c2ccccc12 1.58 µM [inhibitor, full curve, poor fit], Cc1ccc(-c2nnc(SCC(=O)N/N=C/c3ccc(C)s3)n2-c2ccccc2)cc1 35.5 µM [inhibitor, single point], CC(=O)c1cn(-c2ccc(Cl)cc2)c(=O)[nH]c1=O 3.16 µM [activator, partial curve, poor fit], O=C(NCCN1C(=O)S/C(=C\c2ccc(F)cc2)C1=O)C1CCN(S(=O)(=O)c2cccs2)CC1 14.1 µM [activator, single point], Cc1nc2nc(SCc3ccccc3)[nH]n2c(=O)c1C 15.8 µM [activator, single point], Cc1ccc(/C=N/NC(=O)c2nnn(-c3nonc3N)c2CSc2ccc(Cl)cc2)o1 3.55 µM [inhibitor, full curve], Fc1ccc(CNC(=S)Nc2cccc(C(F)(F)F)c2)cc1 5.62 µM [inhibitor, single point], O=C(Cn1cnc2ccccc2c1=O)c1ccccc1 0.794 µM [activator, full curve], CCc1ccc(C(C)NC(=O)c2ccc3c(c2)OCO3)cc1 (stereo not drawn) 35.5 µM [activator, single point], CCOc1cc(S(=O)(=O)NCc2ccncc2)c(C)cc1C 35.5 µM [inhibitor, single point], COc1cccc(Nc2c3c(nc4c(-c5ccccc5)c(C)nn24)CCC3)c1 31.6 µM [inhibitor, partial curve, poor fit], Cc1nnc(Sc2nc3ccccc3o2)c2ccccc12 22.4 µM [inhibitor, single point], C/C(N)=C(/C#N)C(=O)COC(=O)C1CCN(C(=O)c2ccc(Cl)cc2)CC1 11.2 µM [activator, partial curve], Cc1ccc(-n2nnc3ccccc3c2=O)cc1C 2.82 µM [activator, full curve, poor fit], COc1ccccc1NC(=O)c1cc2ccccc2o1 22.4 µM [activator, single point], COCCN(CCOC)c1nc(-c2ccc(Cl)cc2)nc2ccccc12 10 µM [activator, partial curve], Cc1cc(=O)n2nc(-c3ccccc3)sc2n1 17.8 µM [activator, single point], Oc1[nH]c2ccccc2c1N=Nc1nc2ccccc2s1 2.82 µM [inhibitor, single point], COC(=O)Nc1ccc2c(c1)N(C(=O)CCN1CCOCC1)c1ccccc1S2 25.1 µM [inhibitor, single point], CN(C)c1ccc(C(=S)N2CCN(c3ccccc3)CC2)cc1 0.0891 µM [inhibitor, partial curve, poor fit]

Potency, inactive:
COc1ccc(-c2cnc3c(-c4ccc(F)cc4)cnn3c2N)cc1, Cc1ccc(C(=O)Nc2cccc(NC(=O)c3ccc(C)c([N+](=O)[O-])c3)n2)cc1[N+](=O)[O-], CC(C)C[C@@H](CN=[N+]=[N-])N1CCN(C)CCC1=O, COc1cc(/C=C2\SC(=S)N(C(C(=O)O)c3ccccc3)C2=O)cc(OC)c1OC (stereo not drawn), O=C(Nc1ccc2c(c1)OCO2)N1CCN(c2cccc(C(F)(F)F)c2)CC1, O=C(O)/C=C/C(=O)NCCCc1ccccc1, O=C(NCCc1ccccc1)c1ccc(Br)o1, CCOC(=O)c1ccc(-c2ccc(/C=N/NC(=O)CN(c3cccc(C)c3)S(C)(=O)=O)o2)cc1, COCc1ccc(C(=O)N2CCCC(CNC(=O)c3ccc(F)cc3)C2)o1 (stereo not drawn), Cc1ccc(C(=O)N[C@@H](Cc2ccccc2)C(=O)N2CCC3(CC2)NCCc2[nH]cnc23)cc1C, CCOc1ccc(NC(=O)c2cc(F)c(F)cc2Cl)cc1OCC, Cc1sc2nc(SCC(=O)NCc3ccco3)n(C)c(=O)c2c1C, CCOC(=O)NC(=O)/C(C#N)=N\Nc1cccc(Cl)c1, CCCCn1cnc2c(cnn2-c2ccc(Cl)cc2)c1=O, C=CCNC(=S)N1CCN(Cc2ccc3c(c2)OCO3)CC1, COc1cccc2cc(C(=O)NCc3ccccc3Cl)c(=O)oc12, CCc1nc(NCc2ccccn2)c2oc3ccccc3c2n1, O=C1COc2ccc(C(=O)NC3CC3)cc2N1, CCCc1cc(=O)oc2cc(OCc3cc(OC)c(OC)c(OC)c3)c(Cl)cc12, COc1ccc(CN2CCN(c3ncnc4scc(-c5ccc(F)cc5)c34)CC2)cc1

Potency, active:
COc1cc2c(cc1OC)CN(c1nc(CN3CCOCC3)nc3sc4c(c13)CCC(C)C4)CC2 (stereo not drawn) 11.2 µM, OCC1OC(n2cnc3c(Cl)nc(Cl)nc32)C(O)C1O (stereo not drawn) 12.6 µM, CC(Oc1ccccc1)C(=O)NNC(=O)c1ccccn1 (stereo not drawn) 7.94 µM, COc1cccc(C(=O)NCC(=O)OCC(=O)C(C)(C)C)c1 2.51 µM, Cc1ccc(-c2cc(C(=O)NC3=NCCS3)c3cc(Br)ccc3n2)o1 7.94 µM, Cc1nn(-c2ccccc2)c(C)c1/C=N/n1c(-c2ccc(C(C)(C)C)cc2)n[nH]c1=S 2.24 µM, Cc1ccc(Nc2nc(CSc3n[nH]c(N)n3)cs2)cc1 12.6 µM, O=C(Nc1nc(-c2ccccn2)cs1)c1ccc2c(c1)OCCO2 3.16 µM

Activity change, negative = inhibition, inactive:
Cc1ccc(S(=O)(=O)N2CCN(CC(=O)Nc3ccc(N4CCOCC4)cc3)CC2)cc1C -5.9% [at 10 µM]
